Assay results taken from patent US20210371518A1 (University of Texas, published 2021).
No constants are given. Whether binding was seen depends on the method and setting. Some results given as binding are weak or reduced against the parent protein; the word gives no strength.

Chains of the proteins cited; added tags and fusions are not shown. Residues count along the entry.
UniProt Q8NHJ6, residues 22-259: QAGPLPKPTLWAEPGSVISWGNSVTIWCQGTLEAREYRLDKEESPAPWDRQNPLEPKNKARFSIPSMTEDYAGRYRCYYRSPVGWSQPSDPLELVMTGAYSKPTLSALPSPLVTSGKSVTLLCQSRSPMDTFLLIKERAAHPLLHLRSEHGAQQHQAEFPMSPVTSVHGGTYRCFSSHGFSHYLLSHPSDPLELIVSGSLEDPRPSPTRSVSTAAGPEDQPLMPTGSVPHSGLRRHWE
UniProt P02649, residues 19-317: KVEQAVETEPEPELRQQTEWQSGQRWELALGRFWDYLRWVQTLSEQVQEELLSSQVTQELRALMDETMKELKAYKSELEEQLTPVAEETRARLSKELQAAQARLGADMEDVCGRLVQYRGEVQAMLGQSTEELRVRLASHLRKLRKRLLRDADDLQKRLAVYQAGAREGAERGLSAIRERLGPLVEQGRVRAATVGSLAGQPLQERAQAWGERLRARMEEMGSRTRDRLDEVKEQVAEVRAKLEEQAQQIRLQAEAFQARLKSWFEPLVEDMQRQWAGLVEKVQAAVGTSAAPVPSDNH

Molecular target: LILRB4-Fc (human) (UniProt Q8NHJ6)
Test: SPR and bio-layer interferometry, LILRB4-Fc captured on protein A

binding: binds
Substance: recombinant APOE (from UniProt P02649 19-317) (ligand)
